Laboratory results reported in the supplement of paper PMC12067093, “Discovery and optimisation of a covalent ligand for TRIM25 and its application to targeted protein ubiquitination” (Chemical Science, 2025).
Some of the results follow.

Sequences of proteins named here, by UniProt entry; tags and fusion partners are left off. A change or cut given only in a name is not applied to a line headed by its entry.
UniProt Q86WU2: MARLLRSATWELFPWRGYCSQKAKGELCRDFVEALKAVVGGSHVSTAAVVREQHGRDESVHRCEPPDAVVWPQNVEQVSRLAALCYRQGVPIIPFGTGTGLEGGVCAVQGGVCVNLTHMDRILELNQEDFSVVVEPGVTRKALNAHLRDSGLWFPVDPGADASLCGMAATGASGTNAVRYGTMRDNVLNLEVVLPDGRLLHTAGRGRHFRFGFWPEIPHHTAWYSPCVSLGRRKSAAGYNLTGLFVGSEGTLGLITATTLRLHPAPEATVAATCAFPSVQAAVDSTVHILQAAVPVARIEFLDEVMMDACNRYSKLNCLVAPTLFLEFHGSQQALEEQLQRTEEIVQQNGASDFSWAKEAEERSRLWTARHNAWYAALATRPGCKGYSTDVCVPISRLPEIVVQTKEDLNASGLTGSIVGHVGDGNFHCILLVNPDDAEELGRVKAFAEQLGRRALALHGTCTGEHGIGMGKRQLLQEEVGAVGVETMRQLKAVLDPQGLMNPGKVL
UniProt Q32MZ4: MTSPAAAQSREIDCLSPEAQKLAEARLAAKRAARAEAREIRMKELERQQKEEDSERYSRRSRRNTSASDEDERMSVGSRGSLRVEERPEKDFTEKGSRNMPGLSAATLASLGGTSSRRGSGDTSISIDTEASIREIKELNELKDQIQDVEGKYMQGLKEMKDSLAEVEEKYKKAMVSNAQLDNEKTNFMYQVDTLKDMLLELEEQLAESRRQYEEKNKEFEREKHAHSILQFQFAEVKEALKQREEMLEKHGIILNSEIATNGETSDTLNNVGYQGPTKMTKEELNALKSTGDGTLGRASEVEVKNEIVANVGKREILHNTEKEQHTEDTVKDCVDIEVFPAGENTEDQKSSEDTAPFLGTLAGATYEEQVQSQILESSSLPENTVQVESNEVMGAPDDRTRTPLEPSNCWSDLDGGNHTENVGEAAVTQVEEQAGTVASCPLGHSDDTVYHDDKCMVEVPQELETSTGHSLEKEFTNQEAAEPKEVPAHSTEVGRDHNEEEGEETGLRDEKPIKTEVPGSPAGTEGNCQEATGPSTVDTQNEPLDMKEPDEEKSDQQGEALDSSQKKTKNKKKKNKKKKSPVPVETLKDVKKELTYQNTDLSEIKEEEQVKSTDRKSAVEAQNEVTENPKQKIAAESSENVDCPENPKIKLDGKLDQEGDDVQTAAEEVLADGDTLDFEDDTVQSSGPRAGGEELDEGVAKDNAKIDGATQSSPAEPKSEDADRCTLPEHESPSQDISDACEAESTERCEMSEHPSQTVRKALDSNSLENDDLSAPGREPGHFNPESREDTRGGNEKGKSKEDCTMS
UniProt P49916: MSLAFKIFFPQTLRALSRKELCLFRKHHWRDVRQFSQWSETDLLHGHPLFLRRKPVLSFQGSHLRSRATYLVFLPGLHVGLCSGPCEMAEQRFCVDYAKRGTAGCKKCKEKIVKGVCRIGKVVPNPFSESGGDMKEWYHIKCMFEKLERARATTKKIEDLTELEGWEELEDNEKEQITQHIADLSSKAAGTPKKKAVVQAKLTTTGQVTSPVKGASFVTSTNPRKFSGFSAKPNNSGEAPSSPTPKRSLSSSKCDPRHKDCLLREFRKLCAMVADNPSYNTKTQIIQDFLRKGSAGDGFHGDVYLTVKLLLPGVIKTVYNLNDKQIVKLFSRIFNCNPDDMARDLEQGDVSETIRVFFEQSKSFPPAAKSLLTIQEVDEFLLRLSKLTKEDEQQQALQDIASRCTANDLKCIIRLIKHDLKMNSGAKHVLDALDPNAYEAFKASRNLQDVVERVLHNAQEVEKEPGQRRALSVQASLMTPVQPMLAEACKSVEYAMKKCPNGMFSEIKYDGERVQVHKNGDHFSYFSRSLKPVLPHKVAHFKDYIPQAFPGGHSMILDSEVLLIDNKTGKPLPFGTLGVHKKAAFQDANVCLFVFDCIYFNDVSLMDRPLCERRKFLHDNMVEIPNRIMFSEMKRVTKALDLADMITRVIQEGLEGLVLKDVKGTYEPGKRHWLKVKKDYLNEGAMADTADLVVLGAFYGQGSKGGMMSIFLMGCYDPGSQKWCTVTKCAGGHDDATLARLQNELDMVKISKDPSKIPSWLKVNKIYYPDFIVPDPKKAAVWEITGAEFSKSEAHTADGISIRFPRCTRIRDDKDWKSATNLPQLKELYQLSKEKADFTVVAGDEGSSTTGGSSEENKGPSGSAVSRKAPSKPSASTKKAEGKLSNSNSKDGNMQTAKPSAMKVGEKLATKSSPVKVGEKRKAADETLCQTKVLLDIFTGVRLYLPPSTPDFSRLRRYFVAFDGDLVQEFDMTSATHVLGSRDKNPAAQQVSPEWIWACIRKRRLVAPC
UniProt P18858, whole entry, looked up: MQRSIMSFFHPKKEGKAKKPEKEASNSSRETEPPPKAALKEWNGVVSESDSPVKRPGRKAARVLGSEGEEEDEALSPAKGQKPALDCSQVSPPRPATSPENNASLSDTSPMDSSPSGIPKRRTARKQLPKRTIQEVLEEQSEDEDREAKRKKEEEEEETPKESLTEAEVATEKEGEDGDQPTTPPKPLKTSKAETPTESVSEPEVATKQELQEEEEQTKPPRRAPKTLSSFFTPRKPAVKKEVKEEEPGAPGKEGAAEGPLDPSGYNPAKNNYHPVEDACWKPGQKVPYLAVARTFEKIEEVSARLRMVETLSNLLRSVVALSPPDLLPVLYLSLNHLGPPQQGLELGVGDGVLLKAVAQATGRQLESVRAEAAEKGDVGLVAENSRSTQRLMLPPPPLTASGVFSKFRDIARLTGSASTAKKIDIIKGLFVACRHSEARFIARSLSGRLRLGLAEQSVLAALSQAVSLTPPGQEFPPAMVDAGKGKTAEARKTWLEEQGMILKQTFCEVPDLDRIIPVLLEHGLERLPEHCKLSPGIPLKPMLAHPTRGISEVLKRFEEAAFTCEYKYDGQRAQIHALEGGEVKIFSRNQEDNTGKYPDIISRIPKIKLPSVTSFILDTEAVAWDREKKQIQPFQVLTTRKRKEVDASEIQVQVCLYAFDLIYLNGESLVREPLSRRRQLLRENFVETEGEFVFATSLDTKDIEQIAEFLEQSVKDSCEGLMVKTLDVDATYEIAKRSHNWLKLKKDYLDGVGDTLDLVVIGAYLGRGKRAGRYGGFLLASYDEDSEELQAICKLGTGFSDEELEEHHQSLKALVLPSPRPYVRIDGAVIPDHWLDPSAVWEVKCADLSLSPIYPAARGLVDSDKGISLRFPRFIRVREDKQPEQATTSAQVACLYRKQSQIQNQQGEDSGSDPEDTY
UniProt O75427: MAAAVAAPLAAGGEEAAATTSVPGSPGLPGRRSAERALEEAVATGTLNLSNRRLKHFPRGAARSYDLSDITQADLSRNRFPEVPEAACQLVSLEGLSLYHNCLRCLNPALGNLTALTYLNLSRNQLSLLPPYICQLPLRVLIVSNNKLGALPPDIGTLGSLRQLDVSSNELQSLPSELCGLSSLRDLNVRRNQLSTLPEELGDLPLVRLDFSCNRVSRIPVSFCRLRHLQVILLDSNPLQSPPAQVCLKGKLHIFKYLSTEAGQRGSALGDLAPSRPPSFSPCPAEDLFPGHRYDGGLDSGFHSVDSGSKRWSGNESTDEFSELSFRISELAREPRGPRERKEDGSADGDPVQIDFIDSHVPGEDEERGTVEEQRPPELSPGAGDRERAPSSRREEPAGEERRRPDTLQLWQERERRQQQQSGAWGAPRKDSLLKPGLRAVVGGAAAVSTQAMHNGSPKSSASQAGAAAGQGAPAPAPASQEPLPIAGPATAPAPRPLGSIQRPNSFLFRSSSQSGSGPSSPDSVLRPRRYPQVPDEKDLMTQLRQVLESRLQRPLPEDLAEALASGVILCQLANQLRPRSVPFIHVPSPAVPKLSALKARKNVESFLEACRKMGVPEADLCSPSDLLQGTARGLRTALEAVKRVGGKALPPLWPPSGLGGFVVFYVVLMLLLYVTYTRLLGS
UniProt O95202: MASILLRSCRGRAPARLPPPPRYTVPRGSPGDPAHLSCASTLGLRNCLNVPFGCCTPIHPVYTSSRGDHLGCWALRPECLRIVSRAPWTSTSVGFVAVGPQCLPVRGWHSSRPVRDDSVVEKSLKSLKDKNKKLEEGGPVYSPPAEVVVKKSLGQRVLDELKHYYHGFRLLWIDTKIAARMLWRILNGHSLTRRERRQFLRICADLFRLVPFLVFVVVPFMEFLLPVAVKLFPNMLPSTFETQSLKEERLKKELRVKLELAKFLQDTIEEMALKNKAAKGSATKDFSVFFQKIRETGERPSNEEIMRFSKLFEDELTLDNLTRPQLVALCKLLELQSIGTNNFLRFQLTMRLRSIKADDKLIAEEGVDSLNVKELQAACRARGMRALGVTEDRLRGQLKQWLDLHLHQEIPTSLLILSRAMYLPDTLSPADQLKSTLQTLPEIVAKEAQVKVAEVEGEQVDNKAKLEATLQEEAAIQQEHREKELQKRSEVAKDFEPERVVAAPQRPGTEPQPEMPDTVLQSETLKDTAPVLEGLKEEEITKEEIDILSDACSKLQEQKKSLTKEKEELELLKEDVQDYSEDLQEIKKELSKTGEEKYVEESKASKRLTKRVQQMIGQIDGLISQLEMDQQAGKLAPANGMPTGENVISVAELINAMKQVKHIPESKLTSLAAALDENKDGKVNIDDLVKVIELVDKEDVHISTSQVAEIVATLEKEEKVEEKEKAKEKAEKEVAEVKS
UniProt Q9Y2L9: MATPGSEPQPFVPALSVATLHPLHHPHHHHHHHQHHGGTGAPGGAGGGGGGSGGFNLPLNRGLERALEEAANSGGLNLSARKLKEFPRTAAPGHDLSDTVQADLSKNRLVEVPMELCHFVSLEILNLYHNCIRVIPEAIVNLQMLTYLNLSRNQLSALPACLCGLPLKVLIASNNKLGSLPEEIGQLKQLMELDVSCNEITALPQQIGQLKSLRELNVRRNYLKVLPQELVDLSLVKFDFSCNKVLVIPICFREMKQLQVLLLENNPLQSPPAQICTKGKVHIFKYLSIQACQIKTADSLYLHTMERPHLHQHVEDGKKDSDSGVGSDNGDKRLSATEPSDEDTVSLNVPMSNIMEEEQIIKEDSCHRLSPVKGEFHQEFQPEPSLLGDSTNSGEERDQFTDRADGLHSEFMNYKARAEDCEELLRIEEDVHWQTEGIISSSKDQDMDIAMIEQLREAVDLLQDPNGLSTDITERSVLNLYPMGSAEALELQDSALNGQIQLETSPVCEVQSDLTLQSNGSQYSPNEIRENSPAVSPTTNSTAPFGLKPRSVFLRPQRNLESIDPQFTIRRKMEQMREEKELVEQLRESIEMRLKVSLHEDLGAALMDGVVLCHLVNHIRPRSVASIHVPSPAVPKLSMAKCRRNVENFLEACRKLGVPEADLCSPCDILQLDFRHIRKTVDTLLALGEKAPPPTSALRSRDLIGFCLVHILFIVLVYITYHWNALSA
UniProt P09382, whole entry, looked up: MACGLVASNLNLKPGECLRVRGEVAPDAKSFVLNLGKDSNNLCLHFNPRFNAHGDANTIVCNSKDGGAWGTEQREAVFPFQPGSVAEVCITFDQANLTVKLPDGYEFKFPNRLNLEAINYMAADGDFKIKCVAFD
UniProt Q93052: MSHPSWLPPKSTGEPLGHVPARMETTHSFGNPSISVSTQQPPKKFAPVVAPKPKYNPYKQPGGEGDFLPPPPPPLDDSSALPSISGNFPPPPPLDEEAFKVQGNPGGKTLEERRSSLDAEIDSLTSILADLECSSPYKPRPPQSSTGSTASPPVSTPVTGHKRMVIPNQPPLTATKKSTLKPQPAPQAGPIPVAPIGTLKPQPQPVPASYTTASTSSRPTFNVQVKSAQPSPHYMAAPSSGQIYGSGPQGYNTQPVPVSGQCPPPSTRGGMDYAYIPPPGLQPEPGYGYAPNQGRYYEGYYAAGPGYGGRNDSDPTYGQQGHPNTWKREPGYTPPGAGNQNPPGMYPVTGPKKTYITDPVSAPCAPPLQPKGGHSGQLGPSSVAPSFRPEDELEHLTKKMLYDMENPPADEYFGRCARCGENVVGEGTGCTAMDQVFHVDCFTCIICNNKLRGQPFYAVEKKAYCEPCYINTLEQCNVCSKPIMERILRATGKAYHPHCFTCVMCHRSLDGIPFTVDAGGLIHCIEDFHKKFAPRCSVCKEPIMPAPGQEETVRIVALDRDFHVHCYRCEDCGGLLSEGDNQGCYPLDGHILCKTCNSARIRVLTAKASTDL
UniProt O60711: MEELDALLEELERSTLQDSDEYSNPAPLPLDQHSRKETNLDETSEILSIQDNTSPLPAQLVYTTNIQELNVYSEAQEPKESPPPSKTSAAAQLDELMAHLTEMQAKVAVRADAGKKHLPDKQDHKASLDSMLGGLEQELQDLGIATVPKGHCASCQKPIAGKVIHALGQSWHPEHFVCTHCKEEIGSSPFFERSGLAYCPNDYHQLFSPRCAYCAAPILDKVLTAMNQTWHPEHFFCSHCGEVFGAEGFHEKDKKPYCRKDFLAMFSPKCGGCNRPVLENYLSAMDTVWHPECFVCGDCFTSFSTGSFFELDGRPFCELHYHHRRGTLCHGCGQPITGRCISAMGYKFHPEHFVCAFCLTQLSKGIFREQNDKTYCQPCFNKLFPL

Compound: CC1Cc2ccccc2N1C(=O)C1CCCN(C1)C(=O)CCl (mixture of isomers) [TRIM25 ligand 11 (diastereomer mixture)]
Test: probe-labelled cysteine peptide fold change vs DMSO (competition) (log2 fold change); higher = less target engagement (more negative = stronger competition)
Conditions: THP-1, incubation time: 4 h
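Further: competitive chemoproteomic profiling in live THP-1 cells with an iodoacetamide desthiobiotin (IA-DTB) probe, comparing probe-labelled peptide intensities in compound-treated cells against DMSO-treated controls.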

Target | probe-labelled cysteine peptide fold change (10 µM) | probe-labelled cysteine peptide fold change (50 µM)
LDHD_Q86WU2_462_ALALHGTCTGEHGIGMGKR (UniProt Q86WU2) | -0.122 | -0.239
LRRFIP1_Q32MZ4_456_CMVEVPQELETSTGHSLEK (UniProt Q32MZ4) | -0.102 | -0.555
LIG3_P49916_929_KAADETLCQTK (UniProt P49916) | -0.239 | -0.355
LILRB4_Q8NHJ6_330_SSPAADVQGENFCAAVK (UniProt Q8NHJ6) | 0.0572 | -0.155
LIG1_P18858_280_NNYHPVEDACWKPGQK (UniProt P18858) | -0.132 | -0.159
LIG3_P49916_336_IFNCNPDDMAR (UniProt P49916) | -0.00217 | 0.0218
LIN9_Q5TKA1_435_CEEEAQEIVR (UniProt Q5TKA1) | 0.209 | 0.311
LIG1_P18858_846_CADLSLSPIYPAAR (UniProt P18858) | -0.027 | 0.233
LRRC40_Q9H9A6_227_HLDCNSNLLETIPPELAGMESLELLYLRR (UniProt Q9H9A6) | -0.138 | -0.0108
LRBA_P50851_832_NSPQCPESMEVR (UniProt P50851) | 0.0452 | 0.0579
LRCH4_O75427_224_IPVSFCR (UniProt O75427) | 0.0332 | 0.297
LRRK2_Q5S007_1187_FSCIPEAILNLPHLR (UniProt Q5S007) | -0.0746 | -0.134
LGALS9_O00182_312+316_GQSFSVWILCEAHCLK (UniProt O00182) | 0.132 | 0.0872
LRSAM1_Q6UWE0_193_EVCGAGTAAILQFLCK (UniProt Q6UWE0) | 0.0311 | -0.0122
LETM1_O95202_330_LFEDELTLDNLTRPQLVALCK (UniProt O95202) | 0.387 | -0.263
LRCH1_Q9Y2L9_292_YLSIQACQIK (UniProt Q9Y2L9) | -0.0736 | 0.0679
LRCH4_O75427_105_CLNPALGNLTALTYLNLSR (UniProt O75427) | -0.113 | -0.404
LGALS1_P09382_3_ACGLVASNLNLK (UniProt P09382) | 0.117 | 0.0383
LRPPRC_P42704_721_AKYESDMVTGGYAALINLCCR (UniProt P42704) | -0.0767 | 0.0184
LRCH4_O75427_283_GSALGDLAPSRPPSFSPCPAEDLFPGHR (UniProt O75427) | 0.0092 | -0.436

Target | probe-labelled cysteine peptide fold change (10 µM) | probe-labelled cysteine peptide fold change (50 µM)
LPCAT4_Q643R3_304_VMAQALGIPATECEFVGSLPVIVVGR (UniProt Q643R3) | -0.164 | 0.393
LPP_Q93052_566_IVALDRDFHVHCYR (UniProt Q93052) | -0.000226 | 0.00613
LRRC58_Q96CX6_296_YLGSASNCPNPK (UniProt Q96CX6) | -0.075 | -0.204
LMNB1_P20700_198_CQSLTEDLEFR (UniProt P20700) | 0.0133 | 0.132
LDHD_Q86WU2_462_ALALHGTCTGEHGIGMGK (UniProt Q86WU2) | -0.00991 | -0.0249
LRPPRC_P42704_952_LFECDRDQMYYNLLK (UniProt P42704) | 0.0136 | -0.0249
LIG4_P49917_747_FMIHMCPSTK (UniProt P49917) | -0.112 | -0.213
LSS_P48449_484_LCDAVAVLLNMR (UniProt P48449) | -0.0996 | -0.128
LIMK1_P53667_49_IYDGQYLQALNADWHADCFR (UniProt P53667) | 0.206 | 0.00609
LRPPRC_P42704_927_LQWFCDR (UniProt P42704) | 0.0337 | 0.0237
LRRC8A_Q8IWT6_57_MICLPCK (UniProt Q8IWT6) | -0.00487 | 0.0461
LILRB1_Q8NHL6_49_CQGGQETQEYR (UniProt Q8NHL6) | 0.126 | 0.204
LRRC59_Q96AG4_131_VAGDCLDEK (UniProt Q96AG4) | 0.0169 | -0.0381
LRRC41_Q15345_607_GAQPAPLLCSVLK (UniProt Q15345) | -0.0129 | -0.0638
LPXN_O60711_152_GHCASCQKPIAGK (UniProt O60711) | -0.241 | -0.0669
LPCAT2_Q7L5N7_223_RTTSGGEWPQILVFPEGTCTNR (UniProt Q7L5N7) | 0.0202 | 0.206
LENG8_Q96PV6_723_LYCHAPCMSGYLVDK (UniProt Q96PV6) | -0.0117 | 0.103
LPP_Q93052_524_SLDGIPFTVDAGGLIHCIEDFHKK (UniProt Q93052) | -0.207 | -0.131
LRCH1_Q9Y2L9_197_QLMELDVSCNEITALPQQIGQLK (UniProt Q9Y2L9) | -0.0522 | -0.0716
